In paper PMC6689050, “A switch element in the autophagy E2 Atg3 mediates allosteric regulation across the lipidation cascade” (Nature Communications, 2019):

Biological target: T1, Atg3^FR (residues 86–159), the intrinsically disordered flexible region of yeast Atg3 (S. cerevisiae) (UniProt P40344)
T1 sequence: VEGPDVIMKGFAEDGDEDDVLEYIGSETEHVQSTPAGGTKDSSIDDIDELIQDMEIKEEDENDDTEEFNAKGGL
Assay: NMR titration; 0.1 mM 15N-labeled Atg3^FR 86–159 (or its mutant) titrated with 0–500 or 0–625 µM unlabeled Atg3^∆FR; [15N,1H] TROSY; 25 °C, 20 mM MES pH 6.5, 100 mM NaCl, 10% D2O; both purified

binding: binds
Substance: Atg3^∆FR (yeast Atg3 lacking the flexible region) (from UniProt P40344) (enzyme)

These are yes or no findings as the source states them, for the method shown. A result given as binding can be weak or reduced; the word gives no strength.
